Construct, isoform or probe ends are uncertain for at least one entry. For some assays here: No signal at the amounts used counts as a negative. For some assays here: At least one verdict was read from the data and is not stated in words by the source.

The test system of data set [1] is SMAR1. Kind of data set: ITC. The settings on record: 25 C, significant dH, no Kd in text; ITC: 25 C, buffer not stated; recombinant protein; single-stranded DNA.
Data set [2] concerns SMAR1. Kind of data set: competition with a labelled probe. The settings on record: Oligo EMSA: 50 mM Tris pH 7.5, poly(dI-dC), room temperature 1 h, 8% native PAGE 4 C, recombinant protein, single-stranded DNA. (Mobility shift assays separate free from complexed probe on a gel.)
Data set [3] concerns SMAR1. Kind of data set: EMSA. The settings on record: poly(dI-dC); Oligo EMSA: 50 mM Tris pH 7.5, poly(dI-dC), room temperature 1 h, 8% native PAGE 4 C; recombinant protein; label: Cy5 at 5' and 3' ends; single-stranded DNA.
[4] abbreviates: EMSA vs Cy5-(TG)10 and Cy5-(TC)10, poly(dI-dC).

Regarding TGTGTGTGTGTGTGTGTGTG [(TG)10 untagged], the binding result in data set [1] was “binds”; in data set [2] (EMSA vs Cy5 oligo, poly(dI-dC)), “binds”. On to TCTGTCTGTCTGTCTGTCTG [(TCTG)5], for which the binding result in data set [2] (EMSA vs Cy5-(TG)10 and Cy5-(TC)10, poly(dI-dC), text: only (TC)10 and (TG)10 compete) is recorded as “no binding”. Turning to TGTGTGTGTGTGTGTGTGTG [(TG)10 Cy5], in data set [3], the binding result is reported as “binds”. As for ATATATATATATATATATAT [(AT)10], the binding result in data set [2] (setting [4]) is given as “no binding”. Take GCGCGCGCGCGCGCGCGCGC [(GC)10]: the binding result in data set [2] (setting [4]) was “no binding”. Regarding TCTCTCTCTCTCTCTCTCTC [(TC)10 Cy5], the binding result in data set [3] is “binds”. On to TCTCTCTCTCTCTCTCTCTC [(TC)10 untagged], for which the binding result in data set [2] (EMSA vs Cy5 oligo, poly(dI-dC)) is given as “binds”.

These data come from PMC5037395.
